# Some of the results follow.
# How the values were obtained:
# Assay in all cases: glycan array binding signal (z-score within array); higher = stronger binding
# Details in all cases: glycan notation: IUPAC condensed, linker removed
# [1] = molecular target: GlcNAc(b1-3)Gal(b1-4)Glc
# Procedure, shortened: (§1)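 Negative Z-scores can be read as non-binding. The Z-score is calculated within each array and then averaged across arrays of one protein sequence at different concentrations or buffers and across linkers. Arrays, 3228 in all, were curated from the Consortium for Functional Glycomics database and kept only where the protein sequence was available.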
# [2] = molecular target: GlcNAc(b1-3)Gal(b1-4)GlcNAc
# Procedure, shortened: as §1
# [3] = molecular target: GlcNAc(b1-3)Gal(b1-4)GlcNAc(b1-2)Man(a1-3)[GlcNAc(b1-3)Gal(b1-4)GlcNAc(b1-2)Man(a1-6)]Man(b1-4)GlcNAc(b1-4)GlcNAc
# Procedure, shortened: as §1
# [4] = molecular target: GlcNAc(b1-3)Gal(b1-4)GlcNAc(b1-2)Man(a1-3)[GlcNAc(b1-3)Gal(b1-4)GlcNAc(b1-2)Man(a1-6)]Man(b1-4)GlcNAc(b1-4)[Fuc(a1-6)]GlcNAc
# Procedure, shortened: as §1
# [5] = molecular target: GlcNAc(b1-3)Gal(b1-4)GlcNAc(b1-2)[GlcNAc(b1-3)Gal(b1-4)GlcNAc(b1-6)]Man(a1-6)[GlcNAc(b1-3)Gal(b1-4)GlcNAc(b1-2)Man(a1-3)]Man(b1-4)GlcNAc(b1-4)GlcNAc
# Procedure, shortened: as §1
# [6] = molecular target: GlcNAc(b1-3)Gal(b1-4)GlcNAc(b1-3)Gal(b1-4)GlcNAc
# Procedure, shortened: as §1
# [7] = molecular target: GlcNAc(b1-3)Gal(b1-4)GlcNAc(b1-3)Gal(b1-4)GlcNAc(b1-2)Man(a1-3)[GlcNAc(b1-3)Gal(b1-4)GlcNAc(b1-3)Gal(b1-4)GlcNAc(b1-2)Man(a1-6)]Man(b1-4)GlcNAc(b1-4)GlcNAc
# Procedure, shortened: as §1
# [8] = molecular target: GlcNAc(b1-3)Gal(b1-4)GlcNAc(b1-3)Gal(b1-4)GlcNAc(b1-2)Man(a1-3)[GlcNAc(b1-3)Gal(b1-4)GlcNAc(b1-3)Gal(b1-4)GlcNAc(b1-2)Man(a1-6)]Man(b1-4)GlcNAc(b1-4)[Fuc(a1-6)]GlcNAc
# Procedure, shortened: as §1
# [9] = molecular target: GlcNAc(b1-3)Gal(b1-4)GlcNAc(b1-3)Gal(b1-4)GlcNAc(b1-2)[GlcNAc(b1-3)Gal(b1-4)GlcNAc(b1-3)Gal(b1-4)GlcNAc(b1-6)]Man(a1-6)[GlcNAc(b1-3)Gal(b1-4)GlcNAc(b1-3)Gal(b1-4)GlcNAc(b1-2)Man(a1-3)]Man(b1-4)GlcNAc(b1-4)[Fuc(a1-6)]GlcNAc
# Procedure, shortened: as §1
# [10] = molecular target: GlcNAc(b1-3)Gal(b1-4)GlcNAc(b1-3)Gal(b1-4)GlcNAc(b1-3)Gal(b1-4)GlcNAc(b1-2)Man(a1-3)[GlcNAc(b1-3)Gal(b1-4)GlcNAc(b1-3)Gal(b1-4)GlcNAc(b1-3)Gal(b1-4)GlcNAc(b1-2)Man(a1-6)]Man(b1-4)GlcNAc(b1-4)GlcNAc
# Procedure, shortened: as §1
# [11] = molecular target: GlcNAc(b1-3)Gal(b1-4)GlcNAc(b1-3)Gal(b1-4)GlcNAc(b1-3)Gal(b1-4)GlcNAc(b1-2)Man(a1-3)[GlcNAc(b1-3)Gal(b1-4)GlcNAc(b1-3)Gal(b1-4)GlcNAc(b1-3)Gal(b1-4)GlcNAc(b1-2)Man(a1-6)]Man(b1-4)GlcNAc(b1-4)[Fuc(a1-6)]GlcNAc
# Procedure, shortened: as §1
# [12] = molecular target: GlcNAc(b1-3)Gal(b1-4)GlcNAc(b1-3)Gal(b1-4)GlcNAc(b1-3)Gal(b1-4)GlcNAc(b1-2)[GlcNAc(b1-3)Gal(b1-4)GlcNAc(b1-3)Gal(b1-4)GlcNAc(b1-3)Gal(b1-4)GlcNAc(b1-6)]Man(a1-6)[GlcNAc(b1-3)Gal(b1-4)GlcNAc(b1-3)Gal(b1-4)GlcNAc(b1-3)Gal(b1-4)GlcNAc(b1-2)Man(a1-3)]Man(b1-4)GlcNAc(b1-4)[Fuc(a1-6)]GlcNAc
# Procedure, shortened: as §1
# [13] = molecular target: GlcNAc(b1-3)Gal(b1-4)GlcNAc(b1-3)Gal(b1-4)GlcNAc(b1-3)Gal(b1-4)GlcNAc(b1-3)Gal(b1-4)GlcNAc(b1-2)Man(a1-3)[GlcNAc(b1-3)Gal(b1-4)GlcNAc(b1-3)Gal(b1-4)GlcNAc(b1-3)Gal(b1-4)GlcNAc(b1-3)Gal(b1-4)GlcNAc(b1-2)Man(a1-6)]Man(b1-4)GlcNAc(b1-4)GlcNAc
# Procedure, shortened: as §1
# [14] = molecular target: GlcNAc(b1-3)Gal(b1-4)GlcNAc(b1-3)Gal(b1-4)GlcNAc(b1-3)Gal(b1-4)GlcNAc(b1-3)Gal(b1-4)GlcNAc(b1-2)Man(a1-3)[GlcNAc(b1-3)Gal(b1-4)GlcNAc(b1-3)Gal(b1-4)GlcNAc(b1-3)Gal(b1-4)GlcNAc(b1-3)Gal(b1-4)GlcNAc(b1-2)Man(a1-6)]Man(b1-4)GlcNAc(b1-4)[Fuc(a1-6)]GlcNAc
# Procedure, shortened: as §1
# [15] = molecular target: GlcNAc(b1-3)Gal(b1-4)GlcNAc(b1-3)Gal(b1-4)GlcNAc(b1-3)Gal(b1-4)GlcNAc(b1-3)Gal(b1-4)GlcNAc(b1-2)[GlcNAc(b1-3)Gal(b1-4)GlcNAc(b1-3)Gal(b1-4)GlcNAc(b1-3)Gal(b1-4)GlcNAc(b1-3)Gal(b1-4)GlcNAc(b1-6)]Man(a1-6)[GlcNAc(b1-3)Gal(b1-4)GlcNAc(b1-3)Gal(b1-4)GlcNAc(b1-3)Gal(b1-4)GlcNAc(b1-3)Gal(b1-4)GlcNAc(b1-2)Man(a1-3)]Man(b1-4)GlcNAc(b1-4)[Fuc(a1-6)]GlcNAc
# Procedure, shortened: as §1
# [16] = molecular target: GlcNAc(b1-3)Gal(b1-4)GlcNAc(b1-3)Gal(b1-4)GlcNAc(b1-3)GalNAc
# Procedure, shortened: as §1
# [17] = molecular target: GlcNAc(b1-3)Gal(b1-4)GlcNAc(b1-3)GalNAc
# Procedure, shortened: as §1
# [18] = molecular target: GlcNAc(b1-3)Gal(b1-4)GlcNAc(b1-3)[GlcNAc(b1-3)Gal(b1-4)GlcNAc(b1-3)]GalNAc
# Procedure, shortened: as §1
# [19] = molecular target: GlcNAc(b1-3)Gal(b1-4)GlcNAc(b1-6)[Gal(b1-3)]GalNAc
# Procedure, shortened: as §1
# [20] = molecular target: GlcNAc(b1-3)Gal(b1-4)GlcNAc(b1-6)[GlcNAc(b1-3)Gal(b1-3)]GalNAc
# Procedure, shortened: as §1
# [21] = molecular target: GlcNAc(b1-3)Gal(b1-4)GlcNAc(b1-6)[GlcNAc(b1-3)]Gal(b1-4)GlcNAc
# Procedure, shortened: as §1
# [22] = molecular target: GlcNAc(b1-3)GalNAc
# Procedure, shortened: as §1
# [23] = molecular target: GlcNAc(b1-3)Man
# Procedure, shortened: as §1
# [24] = molecular target: GlcNAc(b1-3)[GlcNAc(b1-4)][GlcNAc(b1-6)]GlcNAc
# Procedure, shortened: as §1
# [25] = molecular target: GlcNAc(b1-3)[GlcNAc(b1-6)]Gal(b1-4)GlcNAc
# Procedure, shortened: as §1
# [26] = molecular target: GlcNAc(b1-3)[GlcNAc(b1-6)]GalNAc
# Procedure, shortened: as §1
# [27] = molecular target: GlcNAc(b1-4)Gal(b1-4)GlcNAc
# Procedure, shortened: as §1
# [28] = molecular target: GlcNAc(b1-4)GlcNAc
# Procedure, shortened: as §1
# [29] = molecular target: GlcNAc(b1-4)GlcNAc(b1-4)GlcNAc
# Procedure, shortened: as §1
# [30] = molecular target: GlcNAc(b1-4)GlcNAc(b1-4)GlcNAc(b1-4)GlcNAc(b1-4)GlcNAc
# Procedure, shortened: as §1
# [31] = molecular target: GlcNAc(b1-4)GlcNAc(b1-4)GlcNAc(b1-4)GlcNAc(b1-4)GlcNAc(b1-4)GlcNAc
# Procedure, shortened: as §1
# [32] = molecular target: GlcNAc(b1-4)[GlcNAc(b1-6)]GalNAc
# Procedure, shortened: as §1
# [33] = molecular target: GlcNAc(b1-6)Gal(b1-4)GlcNAc
# Procedure, shortened: as §1
# [34] = molecular target: GlcNAc(b1-6)GalNAc
# Procedure, shortened: as §1
# [35] = molecular target: GlcNAc6S(b1-3)Gal(b1-4)GlcNAc
# Procedure, shortened: as §1
# [36] = molecular target: Kdn(a2-3)Gal(b1-3)GalNAc
# Procedure, shortened: as §1
# [37] = molecular target: Kdn(a2-3)Gal(b1-3)GlcNAc
# Procedure, shortened: as §1
# [38] = molecular target: Kdn(a2-3)Gal(b1-4)Glc
# Procedure, shortened: as §1
# [39] = molecular target: Kdn(a2-3)Gal(b1-4)GlcNAc
# Procedure, shortened: as §1
# [40] = molecular target: Kdn(a2-3)Gal(b1-4)[Fuc(a1-3)]GlcNAc
# Procedure, shortened: as §1
# [41] = molecular target: Kdn(a2-6)Gal(b1-4)GlcNAc
# Procedure, shortened: as §1
# [42] = molecular target: Man(a1-2)Man(a1-2)Man(a1-3)Man
# Procedure, shortened: as §1
# [43] = molecular target: Man(a1-2)Man(a1-2)Man(a1-6)[Man(a1-3)]Man
# Procedure, shortened: as §1
# [44] = molecular target: Man(a1-2)Man(a1-3)Man
# Procedure, shortened: as §1
# [45] = molecular target: Man(a1-2)Man(a1-3)[Man(a1-2)Man(a1-6)]Man
# Procedure, shortened: as §1
binder,measurement,setting,value
pilr alpha (protein) MLYGVTQPKHLSASMGGSVEIPFSFYYPWELATAPDVRISWRRGHFHRQSFYSTRPPSIHKDYVNRLFLNWTEGQKSGFLRISNLQKQDQSVYFCRVELDTRSSGRQQWQSIEGTKLSIT,glycan array binding signal (z-score),[1],-0.019
same,glycan array binding signal (z-score),[2],-0.07
same,glycan array binding signal (z-score),[3],0.049
same,glycan array binding signal (z-score),[4],0.024
same,glycan array binding signal (z-score),[5],1.61
same,glycan array binding signal (z-score),[6],0.692
same,glycan array binding signal (z-score),[7],1.68
same,glycan array binding signal (z-score),[8],0.373
same,glycan array binding signal (z-score),[9],1.14
same,glycan array binding signal (z-score),[10],0.929
same,glycan array binding signal (z-score),[11],1.41
same,glycan array binding signal (z-score),[12],0.798
same,glycan array binding signal (z-score),[13],0.358
same,glycan array binding signal (z-score),[14],-0.21
same,glycan array binding signal (z-score),[15],0.301
same,glycan array binding signal (z-score),[16],-0.4
same,glycan array binding signal (z-score),[17],-0.996
same,glycan array binding signal (z-score),[18],-0.196
same,glycan array binding signal (z-score),[19],-0.669
same,glycan array binding signal (z-score),[20],-0.465
same,glycan array binding signal (z-score),[21],-0.38
same,glycan array binding signal (z-score),[22],-0.39
same,glycan array binding signal (z-score),[23],-0.137
same,glycan array binding signal (z-score),[24],0.471
same,glycan array binding signal (z-score),[25],0.115
same,glycan array binding signal (z-score),[26],-0.198
same,glycan array binding signal (z-score),[27],-0.215
same,glycan array binding signal (z-score),[28],-0.441
same,glycan array binding signal (z-score),[29],-0.675
same,glycan array binding signal (z-score),[30],-0.061
same,glycan array binding signal (z-score),[31],-0.395
same,glycan array binding signal (z-score),[32],-0.608
same,glycan array binding signal (z-score),[33],-0.116
same,glycan array binding signal (z-score),[34],0.309
same,glycan array binding signal (z-score),[35],-0.276
same,glycan array binding signal (z-score),[36],0.304
same,glycan array binding signal (z-score),[37],0.202
same,glycan array binding signal (z-score),[38],0.547
same,glycan array binding signal (z-score),[39],-0.445
same,glycan array binding signal (z-score),[40],-0.586
same,glycan array binding signal (z-score),[41],-0.222
same,glycan array binding signal (z-score),[42],0.161
same,glycan array binding signal (z-score),[43],0.479
same,glycan array binding signal (z-score),[44],-0.461
same,glycan array binding signal (z-score),[45],-0.688
